The supplement of paper PMC6418307
Counter-ions that a name gives are not always drawn. Single values of this set are uncertain.

System: primary mouse cortical neurons
Experiment: cell health score (luciferase spike-in reads / total reads per well) (fraction); higher = fewer cellular reads, worse cell health / toxicity
Details: treatment time 24 h
[1] = 0.01 µM, sex of neuron culture: Female
[2] = 0.01 µM, sex of neuron culture: Male
[3] = 0.1 µM, sex of neuron culture: Female
[4] = 0.1 µM, sex of neuron culture: Male
[5] = 1 µM, sex of neuron culture: Female
[6] = 1 µM, sex of neuron culture: Male
[7] = 10 µM, sex of neuron culture: Female
[8] = 10 µM, sex of neuron culture: Male

| Structure (SMILES) | cell health score [1] | cell health score [2] | cell health score [3] | cell health score [4] | cell health score [5] | cell health score [6] | cell health score [7] | cell health score [8] |
| --- | --- | --- | --- | --- | --- | --- | --- | --- |
| Cc1ccn2nc(S(=O)(=O)Nc3c(F)cccc3F)nc2n1 [Flumetsulam] | 0.000443 | 0.000795 | 0.000851 | 0.00162 | 0.00125 | 0.000846 | 0.00105 | 0.000493 |
| CCCCCOC(=O)COc1cc(N2C(=O)C3=C(CCCC3)C2=O)c(F)cc1Cl [Flumiclorac-pentyl] | 0.000559 | 0.000738 | 0.00111 | 0.000867 | 0.00081 | 0.000607 | 0.00137 | 0.000582 |
| C#CCN1C(=O)COc2cc(F)c(N3C(=O)C4=C(CCCC4)C3=O)cc21 [Flumioxazin] | 0.000499 | 0.000872 | 0.000693 | 0.000651 | 0.000645 | 0.00045 | 0.00107 | 0.000352 |
| CN(C)C(=O)Nc1cccc(C(F)(F)F)c1 [Fluometuron] | 0.00034 | 0.000844 | 0.000931 | 0.000802 | 0.000952 | 0.000658 | 0.00111 | 0.000687 |
| O=c1[nH]c(=O)n([C@H]2C[C@H](O)[C@@H](CO)O2)cc1F [Fluorodeoxy uridine (FdU)] | 0.00101 | 0.000619 | 0.000757 | 0.000983 | 0.000647 | 0.00054 | 0.000672 | 0.00145 |
| CO/N=C(/C1=NOCCO1)c1ccccc1Oc1ncnc(Oc2ccccc2Cl)c1F [Fluoxastrobin] | 0.000406 | 0.00218 | 0.000648 | 0.00112 | 0.00159 | 0.00141 | 0.0136 | 0.00696 |
| CCCCCCC(C)OC(=O)COc1nc(F)c(Cl)c(N)c1Cl (configuration not stated) [Fluroxypyr-meptyl] | 0.000569 | 0.000954 | 0.000862 | 0.000752 | 0.000827 | 0.000634 | 0.00106 | 0.000666 |
| Nc1c(Cl)c(F)nc(OCC(=O)O)c1Cl [Fluroxypyr] | 0.000544 | 0.000648 | 0.000815 | 0.000819 | 0.00103 | 0.000863 | 0.000906 | 0.000434 |
| C[Si](Cn1cncn1)(c1ccc(F)cc1)c1ccc(F)cc1 [Flusilazole] | 0.000737 | 0.000674 | 0.000935 | 0.000825 | 0.000467 | 0.000432 | 0.00102 | 0.000576 |
| COC(=O)CSc1cc(/N=c2\sc(=O)n3n2CCCC3)c(F)cc1Cl [Fluthiacet-methyl] | 0.000597 | 0.00074 | 0.00101 | 0.000842 | 0.000847 | 0.000621 | 0.00157 | 0.000574 |
| CC(C)Oc1cccc(NC(=O)c2ccccc2C(F)(F)F)c1 [Flutolanil] | 0.000649 | 0.000788 | 0.00153 | 0.000801 | 0.00113 | 0.000882 | 0.00133 | 0.00119 |
| O=C1c2ccccc2C(=O)N1SC(Cl)(Cl)Cl [Folpet] | 0.000458 | 0.000729 | 0.00176 | 0.000913 | 0.000654 | 0.000872 | 0.00101 | 0.000517 |
| O=C(Nc1ccccc1)Nc1ccnc(Cl)c1 [Forchlorfenuron] | 0.000895 | 0.000808 | 0.000847 | 0.000817 | 0.000717 | 0.000479 | 0.000899 | 0.000532 |
| CNC(=O)Oc1cccc(/N=C/N(C)C)c1 [Formetanate hydrochloride] | 0.0013 | 0.000817 | 0.000924 | 0.000804 | 0.000722 | 0.000507 | 0.00107 | 0.000547 |
| CCOP(=O)(SC(C)CC)N1CCSC1=O (configuration not stated) [Fosthiazate] | 0.00102 | 0.000721 | 0.000978 | 0.00145 | 0.000678 | 0.00102 | 0.000704 | 0.000459 |
| O=c1c(-c2ccc(O)cc2)coc2cc(O)cc(O)c12 [Genistein] | 0.000598 | 0.00067 | 0.000555 | 0.000872 | 0.000982 | 0.000711 | 0.00136 | 0.000847 |
| O=C(O)CNCP(=O)(O)O [Glyphosate] | 0.000474 | 0.000684 | 0.000652 | 0.000713 | 0.000725 | 0.000317 | 0.000712 | 0.000481 |
| CCCCC(O)(Cn1cncn1)c1ccc(Cl)cc1Cl (configuration not stated) [Hexaconazole] | 0.000447 | 0.000952 | 0.00155 | 0.000948 | 0.000777 | 0.000793 | 0.00259 | 0.00168 |
| CN(C)c1nc(=O)n(C2CCCCC2)c(=O)n1C [Hexazinone] | 0.000572 | 0.000694 | 0.000957 | 0.000686 | 0.000812 | 0.00104 | 0.0014 | 0.000675 |
| C[C@@H]1[C@@H](c2ccc(Cl)cc2)SC(=O)N1C(=O)NC1CCCCC1 [Hexythiazox] | 0.000395 | 0.000923 | 0.00102 | 0.000721 | 0.000962 | 0.000634 | 0.00104 | 0.00106 |

| Structure (SMILES) | cell health score [1] | cell health score [2] | cell health score [3] | cell health score [4] | cell health score [5] | cell health score [6] | cell health score [7] | cell health score [8] |
| --- | --- | --- | --- | --- | --- | --- | --- | --- |
| CC(C(C)N1CC(=O)NC(=O)C1)N1CC(=O)NC(=O)C1 (configuration not stated) [ICRF193] | 0.000716 | 0.000844 | 0.000996 | 0.000919 | 0.000957 | 0.00106 | 0.00137 | 0.00106 |
| CCC(C)OC(=O)N1CCCCC1CCO (configuration not stated) [Icaridin] | 0.000494 | 0.000937 | 0.000804 | 0.000662 | 0.000548 | 0.000418 | 0.000904 | 0.00059 |
| C=CCOC(Cn1ccnc1)c1ccc(Cl)cc1Cl (configuration not stated) [Imazalil] | 0.000376 | 0.000811 | 0.000985 | 0.0012 | 0.00078 | 0.000618 | 0.00197 | 0.00051 |
| COCc1cnc(C2=NC(C)(C(C)C)C(=O)N2)c(C(=O)O)c1 (configuration not stated) [Imazamox] | 0.000659 | 0.000696 | 0.000727 | 0.000628 | 0.000874 | 0.000926 | 0.000957 | 0.000533 |
| Cc1cnc(C2=NC(=O)C(C)(C(C)C)N2)c(C(=O)O)c1 (configuration not stated) [Imazapic] | 0.000595 | 0.000719 | 0.00071 | 0.000612 | 0.00097 | 0.000289 | 0.000882 | 0.000748 |
| CC(C)C1(C)N=C(c2ncccc2C(=O)O)NC1=O (configuration not stated) [Imazapyr] | 0.000484 | 0.00074 | 0.0013 | 0.000788 | 0.000914 | 0.000538 | 0.00111 | 0.000563 |
| CC(C)C1(C)N=C(c2nc3ccccc3cc2C(=O)O)NC1=O (configuration not stated) [Imazaquin] | 0.00079 | 0.000848 | 0.000619 | 0.000709 | 0.000872 | 0.00039 | 0.00123 | 0.000552 |
| CCc1cnc(C2=NC(C)(C(C)C)C(=O)N2)c(C(=O)O)c1 (configuration not stated) [Imazethapyr] | 0.00063 | 0.000672 | 0.00142 | 0.00123 | 0.000753 | 0.000621 | 0.0014 | 0.000542 |
| O=[N+]([O-])/N=C1\NCCN1Cc1ccc(Cl)nc1 [Imidacloprid] | 0.000568 | 0.00113 | 0.000508 | 0.001 | 0.000854 | 0.000397 | 0.000967 | 0.000508 |
| COC(=O)N(C(=O)N1CO[C@@]2(C(=O)OC)Cc3cc(Cl)ccc3C2=N1)c1ccc(OC(F)(F)F)cc1 [Indoxacarb] | 0.00126 | 0.000781 | 0.000819 | 0.000954 | 0.000725 | 0.000628 | 0.00171 | 0.000625 |
| COC(=O)c1ccc(I)cc1S(=O)(=O)NC(=O)Nc1nc(C)nc(OC)n1 [Iodosulfuron-methyl-sodium] | 0.00058 | 0.000892 | 0.000656 | 0.000777 | 0.000927 | 0.000787 | 0.00097 | 0.000668 |
| CC(C)NC(=O)N1CC(=O)N(c2cc(Cl)cc(Cl)c2)C1=O [Iprodione] | 0.000433 | 0.000651 | 0.000758 | 0.000798 | 0.000948 | 0.000911 | 0.000949 | 0.000731 |
| CCc1c2c(nc3ccc(OC(=O)N4CCC(N5CCCCC5)CC4)cc13)-c1cc3c(c(=O)n1C2)COC(=O)[C@]3(O)CC [Irinotecan] | 0.000435 | 0.000792 | 0.000855 | 0.000832 | 0.000892 | 0.000571 | 0.000744 | 0.000284 |
| CCOP(=S)(OCC)Oc1nc(Cl)n(C(C)C)n1 [Isazofos] | 0.000639 | 0.000821 | 0.000846 | 0.000913 | 0.00087 | 0.000753 | 0.000956 | 0.000552 |
| CCC(C)(CC)c1cc(NC(=O)c2c(OC)cccc2OC)on1 [Isoxaben] | 0.000528 | 0.000669 | 0.00167 | 0.00104 | 0.00147 | 0.000643 | 0.00123 | 0.00056 |
| CS(=O)(=O)c1cc(C(F)(F)F)ccc1C(=O)c1cnoc1C1CC1 [Isoxaflutole] | 0.000764 | 0.000657 | 0.000649 | 0.000734 | 0.000767 | 0.000907 | 0.000852 | 0.000575 |
| CCCCCCOC(=O)[C@]1(O)C[C@@H]2O[C@@]1(C)n1c3ccccc3c3c4c(c5c6ccccc6n2c5c31)C(=O)NC4 [KT5720] | 0.000743 | 0.000756 | 0.00076 | 0.000703 | 0.000524 | 0.00109 | 0.00104 | 0.000606 |
| CO/N=C(/C(=O)OC)c1ccccc1COc1ccccc1C [Kresoxim methyl] | 0.000514 | 0.000621 | 0.000925 | 0.000854 | 0.00116 | 0.00173 | 0.0169 | 0.00609 |
| CCOC(=O)C(C)OC(=O)c1cc(Oc2ccc(C(F)(F)F)cc2Cl)ccc1[N+](=O)[O-] (configuration not stated) [Lactofen] | 0.000546 | 0.000854 | 0.000921 | 0.000902 | 0.00112 | 0.000853 | 0.00111 | 0.00149 |

Some entries already given, showing only cell health score [4], cell health score [6] and cell health score [7]:
Structure (SMILES)	cell health score [4]	cell health score [6]	cell health score [7]
CCCCC(O)(Cn1cncn1)c1ccc(Cl)cc1Cl (configuration not stated) [Hexaconazole]	0.000948	0.000793	0.00259
CCC(C)OC(=O)N1CCCCC1CCO (configuration not stated) [Icaridin]	0.000662	0.000418	0.000904
